Reference: publication PMC3186789
These are yes or no findings as the source states them, for the method shown.

Columns and labels:
[1] = target: T1, Group B Streptococcus recombinant sortase A SrtA_(ΔN40) (Streptococcus agalactiae strain 515 (serotype Ia)) (UniProt Q8DZY1); experiment: NMR transverse relaxation time (T2); T2 of SrtA_(ΔN40) as indicator of the overall tumbling rate and size; conditions of this measurement not told; both purified
T1 sequence: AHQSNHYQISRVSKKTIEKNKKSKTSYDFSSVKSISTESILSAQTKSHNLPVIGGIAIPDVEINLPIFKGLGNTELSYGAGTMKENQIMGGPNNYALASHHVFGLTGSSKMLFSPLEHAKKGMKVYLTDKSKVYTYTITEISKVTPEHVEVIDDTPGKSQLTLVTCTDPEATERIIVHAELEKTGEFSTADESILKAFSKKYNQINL

[2] = target: T1, Group B Streptococcus recombinant sortase A SrtA_(ΔN40) (Streptococcus agalactiae strain 515 (serotype Ia)); experiment: SEC-MALS; Superdex 200 PC 3.2/30, eluted isocratically in PBS at 0.1 ml/min; MALS detector on-line, UV at 280 nm; both purified

B1: Group B Streptococcus recombinant sortase A SrtA_(ΔN40) (enzyme, UniProt Q8DZY1 41-247)
chain: AHQSNHYQISRVSKKTIEKNKKSKTSYDFSSVKSISTESILSAQTKSHNLPVIGGIAIPDVEINLPIFKGLGNTELSYGAGTMKENQIMGGPNNYALASHHVFGLTGSSKMLFSPLEHAKKGMKVYLTDKSKVYTYTITEISKVTPEHVEVIDDTPGKSQLTLVTCTDPEATERIIVHAELEKTGEFSTADESILKAFSKKYNQINL
In the case of B1, the binding [1] is reported as “no binding” and the binding [2] is reported as “no binding”.
